Each number is a percent effect as filed.
The record does not define 0% and 100%; most values in the screen are far below 50% and negative numbers occur (in some assays of this library far below -100).
This is an unselected part of the compounds tested.
Two or more numbers in one place are separate tests of the same structure; such repeats can differ widely.

T. brucei: 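Whole-parasite assay of Trypanosoma brucei over 72 hours; the read-out is not stated. Tested at 30 µM. The record gives no direction; compounds that gave an IC50 in retests scored well above the rest, so higher reads as stronger inhibition. Values scatter widely below zero; nearly all retest evidence comes from the higher of the two concentrations used. Of about 64,000 compounds tested this way, about 940 (1.5%) reached 50% or more in at least one test.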
Leishmania in macrophages: 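Cell assay of Leishmania donovani living inside macrophages; the read-out is not stated. Concentration: 30 µM. Direction is inferred from retests: higher values go with stronger inhibition. About 69,000 compounds were tested under these conditions; 1.5% (about 1,000) showed 50% or more at least once.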

Result for CC(Cc1ccccc1Cl)NC(=O)Nc1cnn(CC(N)=O)c1 (stereo unspecified) was T. brucei: -9.905%; Leishmania in macrophages: 11.64%. Result for COCC(=O)NCCc1ccc(Cl)s1 was T. brucei: -0.131%; Leishmania in macrophages: -0.6063%. Cc1nn(C)c(N2CCOCC2)c1CNC1CCC(O)CC1 (stereo unspecified) gave Leishmania in macrophages: 15.85%. For CCn1cnc2c(c(Br)nn2C)c1=O the result was T. brucei: -22.72%; Leishmania in macrophages: -7.375%.

CCN(Cc1ccncc1)CC1(O)CCN(C(=O)c2cccc(C)n2)C1 (stereo unspecified) read T. brucei: 7.737%; Leishmania in macrophages: -1.35% & 21.44%. Result for CC[C@H]1CN(C(=O)C(C)(C)C)CC[C@H]1CC(=O)O was T. brucei: -11.42%; Leishmania in macrophages: -29.34%. Cc1cc(NC(=O)NCC(C(C)C)N2CCOCC2)n(C)n1 (stereo unspecified) read T. brucei: -1.967%; Leishmania in macrophages: 14.15%. For CC(C)NC(=O)Nc1ccccc1CN1CCOCC1 the result was T. brucei: -20.83%; Leishmania in macrophages: 12.67%.

COCCN1CCCc2sc(C(=O)NCC3CCCO3)nc21 (stereo unspecified) read T. brucei: -13.47%; Leishmania in macrophages: -13.9%. O=C(c1cnc2ccc(F)cc2c1NCc1ccco1)N1CCCCC1 gave T. brucei: 14.25%; Leishmania in macrophages: -2.344%. Result for CNC(=O)CNC(=O)Nc1ccc(F)c(Br)c1 was T. brucei: -65.46%; Leishmania in macrophages: -6.938%. CN(Cc1nc(N)c2ccccc2n1)C1CCCN(c2cccnn2)C1 (stereo unspecified) gave T. brucei: 27.32%; Leishmania in macrophages: 26.07%.

With Cc1sc(-c2ccco2)nc1C(=O)N(CC1CCOC1)C1CC1 (stereo unspecified) the screen gave T. brucei: -31.06%; Leishmania in macrophages: 25.87%. For Cc1c(C(C)NC2CCCC2)cnn1-c1ccc(F)cc1F (stereo unspecified) the result was T. brucei: -15.79%; Leishmania in macrophages: 6.771%. For Cc1noc(C)c1CN(C)Cc1csc(-c2ccc(C(C)C)cc2)n1 the result was T. brucei: -28.76%; Leishmania in macrophages: 45.06%. With Cc1ccc(C)c(CN2CCOC(c3noc(C)n3)C2)c1 (stereo unspecified) the screen gave T. brucei: -20.57%; Leishmania in macrophages: 8.077%.

COCC(O)CNc1cncc(Br)c1 (stereo unspecified) gave T. brucei: -179.4%; Leishmania in macrophages: 3.678%. Cc1nn(C)c2c(=O)n(C(C)C)c(NCCc3ccccc3)nc12 gave T. brucei: 4.366%; Leishmania in macrophages: -3.17%. With CCN(CC)c1ncc2c(O)nc(C3CCNCC3)cc2n1 the screen gave T. brucei: -13.91%; Leishmania in macrophages: 12.42%. Cc1nn(C)c(C)c1C1CCCN1C(=O)CCc1cscn1 (stereo unspecified) read T. brucei: 35.02%; Leishmania in macrophages: 9.196%.

NC(=O)c1ccc(N2CCCCC2)c(NC(=O)c2cc(Br)ccc2F)c1 read T. brucei: -2.658%; Leishmania in macrophages: 59.99%. Result for Cc1nc(C2CCCCC2)sc1C(=O)O was T. brucei: -29.98%; Leishmania in macrophages: -10.36%. For O=C(NC[C@@H]1CCCN1)c1cc(COc2cccc(C(F)(F)F)c2)[nH]n1 the result was T. brucei: 10.88%; Leishmania in macrophages: 16.39%. With [H][C@@]12CCCO[C@]1([H])[C@H](NC(=O)CC1CC1)CN(C(=O)c1cccs1)C2 the screen gave T. brucei: -81.72%; Leishmania in macrophages: 17.65%.

With COc1c(C2CCCN2C(=O)c2cc(C)on2)c(C)nn1C (stereo unspecified) the screen gave T. brucei: -6.26%; Leishmania in macrophages: 3.152%. Result for Cc1c(C(C)NC2CCOCC2)cnn1-c1ccc(F)cc1F (stereo unspecified) was T. brucei: -4.385%; Leishmania in macrophages: 3.961%. For CNCC(=O)N1CCC(c2cccc(Oc3ccccc3)n2)CC1 the result was Leishmania in macrophages: 12.06%. Result for OCC1(CCOc2ccccc2)CCN(c2ccc(Cl)cn2)CC1 was T. brucei: -54.23%; Leishmania in macrophages: 22.95%.

With COc1ccc(C(=O)N2Cc3cc(C)ccc3OCC2CN(C)C)cc1.Cl (stereo unspecified) the screen gave T. brucei: 19.62%; Leishmania in macrophages: 15.79%.

Repeated from the top, 2 entries:

structure	T. brucei	Leishmania in macrophages
CC(Cc1ccccc1Cl)NC(=O)Nc1cnn(CC(N)=O)c1 (stereo unspecified)	-9.905	11.64
COCC(=O)NCCc1ccc(Cl)s1	-0.131	-0.6063

Data taken from ChEMBL document CHEMBL3988442, “University of Dundee, Small-Polar-MMV Screening Library” (2021).